The list does not hold the whole screen: it is rich in T/C values a quarter to a half above the control, in often repeated tests (any T/C) and in doses without a T/C. Other doses and runs of a compound stand elsewhere. T/C gives the treated animals as a percentage of the vehicle group. Some doses have a count of surviving animals in place of a T/C: the source holds a T/C of zero for them, seemingly a mark for toxic or unscored doses. Some doses without a T/C left all or most animals alive at the check, yet need not have been tolerated: the source hardly ever lists a survival T/C far under the control, and the zero likely stands for such cases as well. Counts of survivors are from the toxicity check (mostly the fifth day) where no day follows; animals may have died later. Schedule codes are those of the source, read here as Q, the interval in days (D) or hours (H), X, the number of doses. For survival time, this PubChem deposit counts one and a half times the control or more as active, and values a quarter to a half above the control carry no call in these data; other NCI protocols may use other cut-offs. Some entries hold several experiments; the values are given in rising order. Brackets with × count equal records among those shown. Some T/C values carry the count of animals alive at the toxicity check (mostly the fifth day); where none is given, no animal had died by that day.

From PubChem BioAssay AID330 (DTP/NCI, 2004) come the findings set out here.

The experiment deals with P388 leukemia ip, CD2F1 mice, survival T/C. The experiment is described as follows: NCI In Vivo Anticancer Drug Screen. Data for tumor model P388 Leukemia (intraperitoneal) in CD2F1 (CDF1) mice. As to conditions: T/C endpoint: median survival time, higher T/C = longer survival.

Take `CC(=O)OCc1cc(=O)n(C)c2c3c4c(cc12)c(C)cc(=O)n4CO3`: the T/C (dose: 6.25 mg/kg/injection, schedule: Q03HX015 (ip), vehicle: Klucel (hydroxypropylcellulose) (HPC)) is 133 % of control; the T/C (dose: 12.5 mg/kg/injection, schedule: Q01DX005 (ip), vehicle: Klucel (hydroxypropylcellulose) (HPC)) is 128 % of control; the T/C (dose: 12.5 mg/kg/injection, schedule: Q03HX015 (ip), vehicle: Klucel (hydroxypropylcellulose) (HPC)) was 137 % of control; the T/C (dose: 12.5 mg/kg/injection, schedule: Q06HX010 (ip), vehicle: Klucel (hydroxypropylcellulose) (HPC)) is 131 % of control; the T/C (dose: 25.0 mg/kg/injection, schedule: Q01DX005 (ip), vehicle: Klucel (hydroxypropylcellulose) (HPC)) is 134 % of control; the T/C (dose: 25.0 mg/kg/injection, schedule: Q01DX009 (ip), vehicle: Klucel (hydroxypropylcellulose) (HPC)) is 134 % of control. Also, the T/C runs as follows: (dose: 50.0 mg/kg/injection, schedule: Q01DX005 (ip), vehicle: Klucel (hydroxypropylcellulose) (HPC)) 142 % of control; (dose: 50.0 mg/kg/injection, schedule: Q04DX002 (ip), vehicle: Klucel (hydroxypropylcellulose) (HPC)) 134 % of control; (dose: 100.0 mg/kg/injection, schedule: Q01DX001 (ip), vehicle: Klucel (hydroxypropylcellulose) (HPC)) 131 and 137 % of control (2×); (dose: 100.0 mg/kg/injection, schedule: Q04DX002 (ip), vehicle: Klucel (hydroxypropylcellulose) (HPC)) 146 % of control; (dose: 200.0 mg/kg/injection, schedule: Q01DX001 (ip), vehicle: Klucel (hydroxypropylcellulose) (HPC)) 135 and 146 % of control; (dose: 400.0 mg/kg/injection, schedule: Q01DX001 (ip), vehicle: Klucel (hydroxypropylcellulose) (HPC)) 137 % of control [4 of 6 alive]. Besides, the survivor count is, setting by setting: (dose: 50.0 mg/kg/injection, schedule: Q03HX015 (ip), vehicle: Klucel (hydroxypropylcellulose) (HPC)) 3 of 8; (dose: 100.0 mg/kg/injection, schedule: Q01DX005 (ip), vehicle: Klucel (hydroxypropylcellulose) (HPC)) 6 of 8; (dose: 100.0 mg/kg/injection, schedule: Q03HX015 (ip), vehicle: Klucel (hydroxypropylcellulose) (HPC)) 0 of 8; (dose: 100.0 mg/kg/injection, schedule: Q06HX010 (ip), vehicle: Klucel (hydroxypropylcellulose) (HPC)) 0 of 8; (dose: 200.0 mg/kg/injection, schedule: Q01DX005 (ip), vehicle: Klucel (hydroxypropylcellulose) (HPC)) 0 of 8; (dose: 200.0 mg/kg/injection, schedule: Q01DX009 (ip), vehicle: Klucel (hydroxypropylcellulose) (HPC)) 0 of 8. Besides, the survivor count (dose: 200.0 mg/kg/injection, schedule: Q06HX010 (ip), vehicle: Klucel (hydroxypropylcellulose) (HPC)) is recorded as 0 of 8; the survivor count (dose: 400.0 mg/kg/injection, schedule: Q04DX002 (ip), vehicle: Klucel (hydroxypropylcellulose) (HPC)) is 8 of 8; the survivor count (dose: 600.0 mg/kg/injection, schedule: Q01DX001 (ip), vehicle: Klucel (hydroxypropylcellulose) (HPC)) was 0 of 6.
`O=C(O)CSCSCC(=O)O`: the survivor count (dose: 400.0 mg/kg/injection, schedule: Q04DX003 (ip), vehicle: saline) is reported as 0 of 6.
Take `Cc1cc2nc(Cc3nc4cc(C)c(C)cc4[nH]3)[nH]c2cc1C`: the survivor count (dose: 400.0 mg/kg/injection, schedule: Q01DX009 (ip), vehicle: saline with Tween-80) was 5 of 6.
`NC(N)=O`: the survivor count (dose: 800.0 mg/kg/injection, schedule: Q01DX009 (ip), vehicle: saline) is listed as 1 of 6.
